Experimental data: PubChem BioAssay AID504764 (Drosophila RNAi Screening Center, 2011)
In all, the deposit lists about 22,000 reagents; this is an unselected part of those with a known target gene and a result. Over the whole deposit, 403 (1.9%) got an active call. 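Unnormalised raw counts per well; ratio z-scores behind the hit calls and whether each hit raises or lowers signal are not deposited.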 The numbers tell different reagents against one gene apart. The record does not give: the amount of reagent.

Assay: 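Genes whose knock-down alters Notch-dependent transcription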 (primary screen)
System: Drosophila Kc167 cells
Knock-down reagent: long dsRNA against Drosophila genes
Duration: about 5 days (4 days dsRNA, then 24 h after transfection)
Treatment: transfection of constitutively active membrane-tethered Notch lacking the extracellular domain, read 24 h later
Read-out: 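Firefly luciferase from an E(spl)m3 reporter with active Notch, plus control-promoter and uninduced reporter wells for normalisation; unnormalised counts, duplicate wells a and b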
Direction: induced reporter light, run 1, well a and induced reporter light, run 1, well b: higher = more light from the Notch target reporter with active Notch; control promoter light, run 1, well a and control promoter light, run 1, well b: higher = more light from the viral control promoter (cell number, transfection, viability); uninduced reporter light, run 1, well a: higher = more light from the Notch target reporter without active Notch
Active means: 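Wells with low control signal or poorly matching duplicates excluded; duplicates averaged; per source plate, z beyond ±2 for induced/control log2 ratio or beyond ±1.8 for induced/uninduced marks a hit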
Meaning of the calls: active = modifier hit (raised or lowered Notch signal); inactive = not a hit

no.	Gene	reagent	induced reporter light, run 1, well a	induced reporter light, run 1, well b	control promoter light, run 1, well a	control promoter light, run 1, well b	uninduced reporter light, run 1, well a	call
1	hig (GeneID 35949)	1	2.32e5	1.96e5	2.17e5	2.01e5	16538	inactive
2	CG8170 (GeneID 35908)	1	1.66e5	1.48e5	2.10e5	1.86e5	13970	inactive
3	CG18171 (GeneID 38216)	1	1.04e5	1.01e5	2.36e5	1.53e5	6105	inactive
4	CG14106 (GeneID 39506)	1	74575	64270	93050	77140	5915	inactive
5	PH4alphaNE2 (GeneID 43628)	1	1.43e5	1.46e5	1.99e5	1.74e5	11575	inactive
6	CG16815 (GeneID 34725)	1	1.13e5	1.47e5	1.11e5	1.11e5	11850	inactive
7	CG17002 (GeneID 35610)	1	1.68e5	1.93e5	1.50e5	1.62e5	17070	active
8	Ugt303B3 (GeneID 42774)	1	1.11e5	1.08e5	1.41e5	1.37e5	11140	inactive
9	CG9444 (GeneID 41175)	1	1.04e5	91270	79155	55870	6588	inactive
10	CG18368 (GeneID 36519)	1	1.12e5	1.06e5	1.53e5	1.36e5	8850	inactive
11	ppk28 (GeneID 32671)	1	41335	31110	34225	25690	3245	inactive
12	CG17404 (GeneID 41482)	1	67785	79660	80510	65435	4965	inactive
13	CG15312 (GeneID 31940)	1	1.58e5	1.18e5	1.22e5	1.17e5	11930	inactive
14	Ugt305A1 (GeneID 59217)	1	1.33e5	1.19e5	2.05e5	2.18e5	8885	inactive
15	CG34135 (GeneID 4379850)	1	1.93e5	1.27e5	1.53e5	1.44e5	15025	inactive
16	Tsp42Ea (GeneID 59178)	1	2.06e5	1.86e5	2.28e5	2.16e5	15480	inactive
17	Tsp42Ea (GeneID 59178)	2	1.94e5	2.04e5	2.63e5	2.27e5	15205	inactive
18	CG9586 (GeneID 34241)	1	1.27e5	1.33e5	68600	85665	15505	inactive
19	Nadk1a (GeneID 36506)	1	1.94e5	1.93e5	2.12e5	2.60e5	16080	inactive
20	Nadk1a (GeneID 36506)	2	1.71e5	1.41e5	1.59e5	1.61e5	12282	inactive
21	sit (GeneID 42658)	1	2.09e5	1.72e5	2.01e5	2.11e5	15028	inactive
22	Nlp (GeneID 43560)	1	64775	96105	87445	83635	6245	inactive
23	RpS27A (GeneID 34420)	1	84465	95685	46830	59700	11785	inactive
24	CG4998 (GeneID 39808)	1	2.35e5	2.30e5	2.09e5	2.20e5	10630	inactive
25	CG4998 (GeneID 39808)	2						inactive
26	mub (GeneID 40436)	1	92035	86630	49485	57665	8225	inactive
27	SP1173 (GeneID 38744)	1	1.04e5	1.31e5	83155	30995	10905	inactive
28	mRpL18 (GeneID 36406)	1	98795	79630	1.69e5	1.07e5	9230	inactive
29	Glys (GeneID 41823)	1	1.32e5	1.53e5	1.04e5	1.02e5	9942	inactive
30	CG40006 (GeneID 3355123)	1	76075	72760	78830	92210	8225	inactive
31	CG40006 (GeneID 3355123)	2	62905	79465	83450	83915	7400	inactive
32	CG40006 (GeneID 3355123)	3	64415	55560	67635	93755	7100	active
33	CG40006 (GeneID 3355123)	4	67810	71400	82380	78650	9010	active
34	Gr68a (GeneID 39324)	1	2.38e5	2.45e5	3.62e5	2.63e5	12688	inactive

Entries listed so far marked active, once more:
Gene	reagent	induced reporter light, run 1, well a	induced reporter light, run 1, well b	control promoter light, run 1, well a	control promoter light, run 1, well b	uninduced reporter light, run 1, well a	call
CG17002 (GeneID 35610)	1	1.68e5	1.93e5	1.50e5	1.62e5	17070	active
CG40006 (GeneID 3355123)	3	64415	55560	67635	93755	7100	active
CG40006 (GeneID 3355123)	4	67810	71400	82380	78650	9010	active
